Source: PubChem BioAssay AID330 (DTP/NCI, 2004)
The list does not hold the whole screen: it is rich in T/C values a quarter to a half above the control, in often repeated tests (any T/C) and in doses without a T/C. Further doses and runs are listed elsewhere. T/C: endpoint of the treated group in % of that of the vehicle group. Some doses have a count of surviving animals in place of a T/C: the source holds a T/C of zero for them, seemingly a mark for toxic or unscored doses. Some survivor counts are full or nearly so, which does not show that the dose was tolerated: survival well below the control is almost never listed, so the zero probably covers shortened survival too. Survivors were counted at the toxicity check, usually on the fifth day, unless a day is given; later deaths do not show. Schedule codes are those of the source, taken here to give the interval after Q, in days (D) or hours (H), and the number of doses after X. Some doses were run more than once; the results are listed from low to high. For survival time, the PubChem record calls one and a half times the control and up active, and a quarter to a half above the control has no call in these data; cut-offs in other NCI protocols can differ. Some T/C values carry the count of animals alive at the toxicity check (mostly the fifth day); where none is given, no animal had died by that day.

Test system: P388 leukemia ip, CD2F1 mice, survival T/C
Experiment: NCI In Vivo Anticancer Drug Screen. Data for tumor model P388 Leukemia (intraperitoneal) in CD2F1 (CDF1) mice
Settings: T/C endpoint: median survival time, higher T/C = longer survival
[1] = dose: 200.0 mg/kg/injection, schedule: Q01DX001 (ip), vehicle: saline with Tween-80
[2] = dose: 400.0 mg/kg/injection, schedule: Q01DX001 (ip), vehicle: saline with Tween-80
[3] = dose: 120.0 mg/kg/injection, schedule: Q01DX005 (ip), vehicle: saline with Tween-80
[4] = dose: 50.0 mg/kg/injection, schedule: Q01DX005 (ip), vehicle: saline with Tween-80
[5] = dose: 100.0 mg/kg/injection, schedule: Q01DX005 (ip), vehicle: saline with Tween-80
[6] = dose: 200.0 mg/kg/injection, schedule: Q01DX005 (ip), vehicle: saline with Tween-80
[7] = dose: 100.0 mg/kg/injection, schedule: Q01DX009 (ip), vehicle: saline with Tween-80
[8] = dose: 100.0 mg/kg/injection, schedule: Q01DX005 (ip), vehicle: saline
[9] = dose: 200.0 mg/kg/injection, schedule: Q01DX005 (ip), vehicle: saline
[10] = dose: 6.25 mg/kg/injection, schedule: Q01DX009 (ip), vehicle: Klucel (hydroxypropylcellulose) (HPC)
[11] = dose: 12.5 mg/kg/injection, schedule: Q01DX009 (ip), vehicle: Klucel (hydroxypropylcellulose) (HPC)
[12] = dose: 25.0 mg/kg/injection, schedule: Q01DX009 (ip), vehicle: Klucel (hydroxypropylcellulose) (HPC)

N#C/C(=C/c1ccccc1)CBr
survivor count [1]: 0 of 6
survivor count [2]: 0 of 6

CCOC(=O)C1=C(C(=O)c2ccc(OC)cc2)C(c2cccc([N+](=O)[O-])c2)C(C(=O)c2ccc(OC)cc2)=C(C(=O)OCC)N1
survivor count [3]: 6 of 6

O=C(O)c1cc2c(c(C(=O)O)c1O)CCCC2
survivor count [4]: 0 of 5
survivor count [5]: 0 of 5
survivor count [6]: 0 of 5

NC(CC(=O)O)C(=O)O (stereo not drawn)
survivor count (dose: 200.0 mg/kg/injection, schedule: Q01DX009 (ip), vehicle: Klucel (hydroxypropylcellulose) (HPC)): 6 of 6

CC1=CC(O)C(O)C2(C)C1CC1OC(=O)CC3C(C)C(O)C(=O)C2C13CO (stereo not drawn)
survivor count [4]: 3 of 6
survivor count [5]: 1 of 6
survivor count [6]: 0 of 6

Cn1c(=S)[nH]c2scc(-c3ccccc3)c2c1=O
survivor count [3]: 6 of 6

CCCCCC(=O)NC(Cc1ccc(N(CCCl)CCCl)cc1)C(=O)O (stereo not drawn)
T/C (dose: 5.3 mg/kg/injection, schedule: Q01DX009 (ip), vehicle: saline): 136 % of control
T/C (dose: 10.6 mg/kg/injection, schedule: Q01DX009 (ip), vehicle: saline): 140 % of control
T/C (dose: 10.6 mg/kg/injection, schedule: Q03HX008 (ip), vehicle: saline): 130 % of control
survivor count (dose: 42.4 mg/kg/injection, schedule: Q03HX008 (ip), vehicle: saline): 0 of 10

CP1(C)=NP(C)(C)=NP(C)(C)=NP(C)(C)=N1.[Cl][Pt]([Cl])([Cl])[Cl]
T/C (dose: 25.0 mg/kg/injection, schedule: Q04DX003 (ip), vehicle: saline with Tween-80): 131 % of control
survivor count (dose: 100.0 mg/kg/injection, schedule: Q04DX003 (ip), vehicle: saline with Tween-80): 1 of 5
survivor count (dose: 200.0 mg/kg/injection, schedule: Q04DX003 (ip), vehicle: saline with Tween-80): 0 of 5

COc1cccc2c1C(=O)c1c(O)c3c(c(O)c1C2=O)C[C@@](O)(C(=O)CSc1ccccc1)C[C@@H]3OC1CC(N)C(O)C(C)O1 (stereo partly drawn)
T/C (dose: 1.56 mg/kg/injection, schedule: Q01DX009 (ip), vehicle: water): 130 and 137 % of control
T/C (dose: 3.13 mg/kg/injection, schedule: Q01DX009 (ip), vehicle: water): 138 [5 of 6 alive] and 140 % of control
T/C (dose: 6.25 mg/kg/injection, schedule: Q01DX001 (ip), vehicle: water): 127 % of control
T/C (dose: 6.25 mg/kg/injection, schedule: Q01DX009 (ip), vehicle: water): 131 and 138 % of control
T/C (dose: 12.5 mg/kg/injection, schedule: Q01DX001 (ip), vehicle: water): 127 % of control
survivor count (dose: 25.0 mg/kg/injection, schedule: Q01DX001 (ip), vehicle: water): 2 of 6
survivor count (dose: 25.0 mg/kg/injection, schedule: Q01DX009 (ip), vehicle: water): 1 of 6
survivor count (dose: 50.0 mg/kg/injection, schedule: Q01DX001 (ip), vehicle: water): 0 of 6
survivor count (dose: 100.0 mg/kg/injection, schedule: Q01DX001 (ip), vehicle: water): 0 of 6

Clc1ccc2[nH]c3nc4ccccc4nc3c2c1
survivor count [7]: 6 of 6

Cc1nnc(SCC2=C(C(=O)O)N3C(=O)C(NC(=O)Cn4cnnn4)C3SC2)s1 (stereo not drawn)
T/C (dose: 50.0 mg/kg/injection, schedule: Q01DX009 (ip), vehicle: saline): 94, 105, 109, 121 % of control
T/C (dose: 100.0 mg/kg/injection, schedule: Q01DX009 (ip), vehicle: saline): 98, 100, 109, 122 % of control
T/C (dose: 200.0 mg/kg/injection, schedule: Q01DX009 (ip), vehicle: saline): 103, 109, 114, 122 % of control

COC(=O)C1=C(C(=O)OC)P2(C)(C)ON(c3ccccc3)C(C(=O)c3ccccc3)N2C1(c1ccccc1)c1ccccc1 (stereo not drawn)
survivor count (dose: 50.0 mg/kg/injection, schedule: Q01DX005 (ip), vehicle: Klucel (hydroxypropylcellulose) (HPC)): 6 of 6
survivor count (dose: 100.0 mg/kg/injection, schedule: Q01DX005 (ip), vehicle: Klucel (hydroxypropylcellulose) (HPC)): 5 of 6
survivor count (dose: 200.0 mg/kg/injection, schedule: Q01DX005 (ip), vehicle: Klucel (hydroxypropylcellulose) (HPC)): 6 of 6

Cn1nc(-c2ccc(Cl)cc2)[n+]([O-])c2c(=O)n(C)c(=O)nc1-2
survivor count (dose: 6.25 mg/kg/injection, schedule: Q04DX003 (ip), vehicle: Klucel (hydroxypropylcellulose) (HPC)): 0 of 6
survivor count (dose: 12.5 mg/kg/injection, schedule: Q04DX003 (ip), vehicle: Klucel (hydroxypropylcellulose) (HPC)): 0 of 6
survivor count (dose: 25.0 mg/kg/injection, schedule: Q04DX003 (ip), vehicle: Klucel (hydroxypropylcellulose) (HPC)): 0 of 6
survivor count (dose: 50.0 mg/kg/injection, schedule: Q04DX003 (ip), vehicle: Klucel (hydroxypropylcellulose) (HPC)): 0 of 6
survivor count (dose: 100.0 mg/kg/injection, schedule: Q04DX003 (ip), vehicle: Klucel (hydroxypropylcellulose) (HPC)): 0 of 6
survivor count (dose: 200.0 mg/kg/injection, schedule: Q04DX003 (ip), vehicle: Klucel (hydroxypropylcellulose) (HPC)): 0 of 6
survivor count (dose: 400.0 mg/kg/injection, schedule: Q04DX003 (ip), vehicle: Klucel (hydroxypropylcellulose) (HPC)): 0 of 6

O=c1[nH]nnc2nc(N3CCOCC3)sc12
survivor count [2]: 0 of 6

CN(N=O)C1=NC2(CCCCC2)P(=O)(NNc2ncccn2)O1 (stereo not drawn)
survivor count (dose: 240.0 mg/kg/injection, schedule: Q01DX005 (ip), vehicle: saline): 0 of 6

CC(C)NC(=O)c1ccccc1Sc1ccccc1CN(C)C(C)C
survivor count [1]: 0 of 6
survivor count [2]: 0 of 6

Cc1coc2c1C[C@@]1(C)[C@H](C2)C(=O)CC[C@@H]1C
survivor count (dose: 75.0 mg/kg/injection, schedule: Q01DX009 (ip), vehicle: Klucel (hydroxypropylcellulose) (HPC)): 1 of 6
survivor count (dose: 150.0 mg/kg/injection, schedule: Q01DX009 (ip), vehicle: Klucel (hydroxypropylcellulose) (HPC)): 0 of 6

CC1=C(C)C(=O)C2=C(OCCCO2)C1=O
survivor count (dose: 60.0 mg/kg/injection, schedule: Q01DX005 (ip), vehicle: Klucel (hydroxypropylcellulose) (HPC)): 4 of 6
survivor count (dose: 120.0 mg/kg/injection, schedule: Q01DX005 (ip), vehicle: Klucel (hydroxypropylcellulose) (HPC)): 0 of 6
survivor count (dose: 240.0 mg/kg/injection, schedule: Q01DX005 (ip), vehicle: Klucel (hydroxypropylcellulose) (HPC)): 0 of 6

CCN(CC)CCSc1c2ccc(Cl)cc2nc2ccc(OC)cc12
survivor count [8]: 3 of 5
survivor count [9]: 1 of 5

C=C=C(C)C(C(C)C)N1CCCC1 (stereo not drawn)
survivor count [9]: 0 of 6

COc1cc(C2NCCc3cc4c(cc32)OCO4)cc(OC)c1OC (stereo not drawn)
survivor count [6]: 2 of 5

CCC[CH2][Sn]1([CH2]CCC)[O]CC[S]1
T/C (dose: 3.12 mg/kg/injection, schedule: Q01DX009 (ip), vehicle: Klucel (hydroxypropylcellulose) (HPC)): 129 % of control
T/C [10]: 106 and 114 % of control
survivor count [10]: 0 of 6, 2 of 6, 4 of 6, 6 of 6
T/C [11]: 109 % of control [5 of 6 alive]
survivor count [11]: 0 of 6, 4 of 6, 5 of 6, 6 of 6
T/C [12]: 132 % of control
survivor count [12]: 0 of 6
survivor count (dose: 50.0 mg/kg/injection, schedule: Q01DX009 (ip), vehicle: Klucel (hydroxypropylcellulose) (HPC)): 0 of 6

CC(=O)OCC#CCN1CCCCC1
survivor count (dose: 50.0 mg/kg/injection, schedule: Q01DX005 (ip), vehicle: saline): 2 of 6
survivor count [8]: 1 of 6
survivor count [9]: 0 of 6

Cc1cccc(C)c1N=CNc1c(C)cccc1C.[Cu+2]
T/C (dose: 50.0 mg/kg/injection, schedule: Q01DX009 (ip), vehicle: saline with Tween-80): 105, 114, 117, 134 % of control
survivor count [7]: 2 of 6 and 3 of 6
survivor count (dose: 200.0 mg/kg/injection, schedule: Q01DX009 (ip), vehicle: saline with Tween-80): 5 of 6
